Assay results: patent US20050123936A1 (priority 2003, published 2005)

Molecular target: T1, Extradenticle (Exd), homeodomain plus extended fourth helix (Drosophila) (UniProt P40427)
T1 sequence (looked up): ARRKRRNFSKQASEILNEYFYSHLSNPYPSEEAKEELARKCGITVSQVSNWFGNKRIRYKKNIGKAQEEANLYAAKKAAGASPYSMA
Assay: EMSA
Conditions: purified recombinant protein, label: 5'-32P both strands

**Q.** What does the source list for “GATCTCCCGGCGAATGATTGACCATATCGGCGCCACTGTCACCCGGA (double strand) [Optimal EMSA duplex (FIG. 2a), 47 bp]”?
**A.** binding result (Exd alone at 1 uM, multiple Exd molecules bind nonspecifically, compound 2 improves affinity at least ~200-fold): binds more weakly; binding result (with 50 nM compound 3 (mutant peptide YPAA), up to 100 nM Exd, 4 C): no binding; binding result (with 50 nM polyamide 1 (no peptide), up to 100 nM Exd, 4 C): no binding

A negative result means that nothing was seen under these conditions. Protein sequences can lack the tags named with them. Weaker means in comparison with the reference protein, sequence or condition of that experiment.
